# The full ranking holds about 33,000 sequences; the median of “E-score (-0.5 to 0.5)” is about -0.016, and the highest 2% start at about 0.3. The list shows a part of the results.
# Molecular target: T1, Yer184c (UniProt P39961)
# T1 sequence: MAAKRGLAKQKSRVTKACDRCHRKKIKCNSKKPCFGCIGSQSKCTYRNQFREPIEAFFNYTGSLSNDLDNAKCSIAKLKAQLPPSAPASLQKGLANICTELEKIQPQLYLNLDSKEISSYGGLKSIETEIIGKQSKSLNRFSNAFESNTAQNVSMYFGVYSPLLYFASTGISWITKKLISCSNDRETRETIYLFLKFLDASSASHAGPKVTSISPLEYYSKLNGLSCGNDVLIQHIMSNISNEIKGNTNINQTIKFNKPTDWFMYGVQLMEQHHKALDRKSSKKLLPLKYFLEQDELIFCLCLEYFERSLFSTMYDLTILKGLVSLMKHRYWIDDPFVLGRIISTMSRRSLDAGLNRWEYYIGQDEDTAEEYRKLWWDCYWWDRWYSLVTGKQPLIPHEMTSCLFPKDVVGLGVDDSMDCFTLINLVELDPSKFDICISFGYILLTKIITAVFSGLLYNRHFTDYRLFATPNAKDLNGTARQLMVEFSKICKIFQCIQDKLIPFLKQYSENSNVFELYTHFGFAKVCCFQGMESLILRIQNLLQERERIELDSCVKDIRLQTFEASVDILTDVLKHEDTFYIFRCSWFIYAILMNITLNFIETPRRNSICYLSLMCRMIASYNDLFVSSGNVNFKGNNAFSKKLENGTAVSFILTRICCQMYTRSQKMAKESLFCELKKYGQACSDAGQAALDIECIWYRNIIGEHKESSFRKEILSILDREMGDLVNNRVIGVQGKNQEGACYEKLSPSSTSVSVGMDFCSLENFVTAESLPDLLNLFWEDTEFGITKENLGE
# Assay: PBM E-score (8-mer binding enrichment) (E-score (-0.5 to 0.5)); higher = stronger / more preferred TF binding
# Conditions: protein concentration: 100 nM; construct: GST-full length
# Description: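 Universal 'all 10-mer' protein binding microarrays (Agilent AMADID 015681) probed with GST-tagged S. cerevisiae TFs (full-length or DBD) made by in vitro transcription/translation (PURExpress), about 100-200 nM. Bound TF was detected with fluorescent anti-GST. Each ungapped 8-mer (which stands for itself and its reverse complement) is scored by the PBM enrichment score (E-score), a modified Wilcoxon-Mann-Whitney statistic from -0.5 to +0.5, computed with the Universal PBM Analysis Suite. Scale: above 0.35 generally sequence-specific binding.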
row,Sequence,PBM E-score
1,CGTGAATA,-0.0251
2,AGTGGTCG,-0.0425
3,CCTATACG,-0.267
4,TAGTTCAA,0.0603
5,GGAGTCCC,-0.166
6,AACTCACG,0.15
7,TAGTGAGA,-0.00975
8,CGGCGGTA,0.348
9,GGGAAGGA,-0.198
10,AAAAAATG,0.266
11,GTTATAGA,0.117
12,CCAACGGC,-0.00857
13,ATCTAACA,0.0855
14,ATGGAGCG,-0.07
15,ACTCCCCT,-0.199
16,CGCCACAA,-0.0767
17,CAAAGTGC,-0.102
18,GATCCTAC,-0.0277
19,GGGGCCGA,-0.192
20,CTGTGGCA,-0.136
21,TAGATCCA,0.0121
22,AAGGTACT,0.142
23,ACTATCAC,-0.0155
24,CGTGATTC,-0.0226
25,ACGGGGGC,-0.31

row,Sequence,PBM E-score
1,TCGCCACA,-0.101
2,CATAGTAA,0.209
3,CCTTTGAA,-0.0618
4,ATCTGGCG,-0.109
5,CCTGTTAG,0.0158
6,ACTCGTAA,0.134
7,GAGGCGGA,0.0769
8,CCAACAGC,-0.0193
9,AAGTACCC,-0.0197
10,CATATATC,0.111
11,ATCTCTGG,-0.202
12,CGCTGGTC,-0.148
13,AGGTGTAA,-0.1
14,TGGTGACA,-0.00147
15,CCAGACAG,-0.131
16,ATCGCGAT,0.0567
17,GGGTGTGA,-0.3
18,CCTCCGCA,-0.247
19,CATCCATA,-0.0625
20,CACAGGAA,0.0944
21,ACAATCGG,0.307
22,GCATTGAC,-0.119
23,GCTAGCAC,-0.117
24,TACCCATA,-0.198
25,CACCGCAA,0.103

row,Sequence,PBM E-score
1,GCTCCTCC,-0.205
2,ATGCTGGA,0.0518
3,AGACAAAA,-0.0591
4,GCACTCGC,-0.079
5,AAGTGACA,0.0983
6,GCAGCGGA,0.125
7,GGTGTTAC,-0.0631
8,AACACGAC,0.0573
9,AATCTCAA,0.0809
10,ACTTAGCA,0.051
11,CCACCTCA,-0.312
12,GAGCTTCC,0.14
13,AACATGGA,-0.00809
14,GACCTGGC,-0.2
15,GGGATAGA,-0.186
16,GATGTGCC,0.045
17,AAGAAGAC,-0.025
18,CAGAATTC,0.149
19,CCCGATCA,0.0261
20,AACCCACA,0.0266
21,GGACCGAC,0.12
22,CACAGTGG,-0.144
23,AGATAGCC,0.019
24,ATCTTCTG,-0.00807
25,CGCAGACC,-0.105

# 39 entries from above, set out differently:
row	Sequence	PBM E-score
10	CATATATC	0.111
11	ATCTCTGG	-0.202
12	CGCTGGTC	-0.148
13	AGGTGTAA	-0.1
14	TGGTGACA	-0.00147
15	CCAGACAG	-0.131
16	ATCGCGAT	0.0567
17	GGGTGTGA	-0.3
18	CCTCCGCA	-0.247
19	CATCCATA	-0.0625
20	CACAGGAA	0.0944
21	ACAATCGG	0.307
22	GCATTGAC	-0.119
23	GCTAGCAC	-0.117
24	TACCCATA	-0.198
25	CACCGCAA	0.103
1	GCTCCTCC	-0.205
2	ATGCTGGA	0.0518
3	AGACAAAA	-0.0591
4	GCACTCGC	-0.079
5	AAGTGACA	0.0983
6	GCAGCGGA	0.125
7	GGTGTTAC	-0.0631
8	AACACGAC	0.0573
9	AATCTCAA	0.0809
10	ACTTAGCA	0.051
11	CCACCTCA	-0.312
12	GAGCTTCC	0.14
13	AACATGGA	-0.00809
14	GACCTGGC	-0.2
15	GGGATAGA	-0.186
16	GATGTGCC	0.045
17	AAGAAGAC	-0.025
18	CAGAATTC	0.149
19	CCCGATCA	0.0261
20	AACCCACA	0.0266
21	GGACCGAC	0.12
22	CACAGTGG	-0.144
23	AGATAGCC	0.019

# Following part.

row,Sequence,PBM E-score
1,CCCGACGC,0.00987
2,AGTAACGG,0.101
3,CGGCCCTC,-0.112
4,GGGATCAC,-0.226
5,CCGATAGC,-0.0418
6,AGGAGTAT,-0.271
7,CAAGGGGC,-0.189
8,AAGACGCG,-0.0332
9,TAATGACA,0.0861
10,ACATCCGA,0.346
11,ACACAATG,0.101
12,CGGTTCTC,0.173
13,CCGCTACG,-0.0976
14,GAGGCACC,-0.223
15,ACCTGTTG,-0.138
16,ACGACTTC,0.0208
17,ATATTCAC,-0.00695
18,GGCGTACA,-0.102
19,CCACGTCC,-0.396
20,CACTTATC,-0.0553
21,CTGGGCAA,0.00899
22,ACTGGTAG,-0.0441
23,CAATTTAA,0.239
24,AAAATAGC,-0.143
25,ACTTTTTC,-0.0519

row,Sequence,PBM E-score
1,CAGCCTCA,-0.182
2,CGTGTTGC,6e-05
3,CGATCGCG,0.136
4,AGTAACTG,-0.0845
5,ACGGACAA,0.27
6,AGCAAACT,0.103
7,AACTAATT,0.182
8,CGTCGTTA,-0.0143
9,GCTTTCTA,0.192
10,CACACAAG,0.0649
11,GGCGACCA,-0.182
12,GGCTGTTA,0.156
13,GTAGAACA,-0.166
14,AAAACTGG,-0.0222
15,ACCTCGCC,-0.206
16,ACAGCACT,0.087
17,TATACATA,0.113
18,CGAAGCAC,0.0194
19,CAATGTTA,0.0647
20,CGGGACAC,-0.026
21,CCATCTGA,-0.0258
22,CAAGCAAA,-0.0314
23,TTCAAAAA,0.228
24,TAAGCTTA,0.0409
25,CACACATC,-0.212

row,Sequence,PBM E-score
1,GTCGGACA,0.193
2,TGGAGACA,-0.0762
3,TCAGTTAA,0.0228
4,ACTGCATG,-0.0513
5,ACAGCATG,-0.108
6,AATAGCCT,-0.163
7,GCTTTAGA,-0.075
8,AGGATATA,0.124
9,CCAGTGTA,-0.121
10,AACTTCCT,0.136
11,CAGTAGAA,-0.069
12,GCGACGCC,-0.0662
13,CGGGTGAC,-0.0044
14,AGAATATG,0.11
15,GCCGTCAC,0.13
16,CTATTCTA,0.015
17,CACAAGGA,-0.0121
18,ACTGGGGG,-0.242
19,GTTCGAGA,-0.0825
20,ATAAAGCC,-0.0239
21,AATTGCGG,0.13
22,AACGCCGC,0.116
23,CCCTATAG,-0.146
24,GTAGTAAC,0.0433
25,CGTTTACC,0.0864

row,Sequence,PBM E-score
1,GATCCAAC,0.0324
2,CTTACAAC,0.149
3,CTGAGCAG,-0.075
4,CAAGAATG,0.103
5,GATAACAC,0.0102
6,AGGTATCC,0.125
7,ACATACAC,0.118
8,AGGGACTA,-0.182
9,ATGGTGAC,-0.171
10,AATGATGG,0.0279
11,CAGAACTC,-0.0755
12,AATTCCCG,0.272
13,CTTCATCA,0.0503
14,CGATAGGC,-0.0653
15,GCGTGCGA,-0.0414
16,GTGCTGCA,-0.0801
17,GGAGGAAA,0.0452
18,CCCGGAGA,0.222
19,CGTGAAAA,0.172
20,GCTGACGA,-0.0611
21,ATCAGGGC,-0.202
22,GAAAGCGC,-0.0187

# — the supplement of paper PMC3334620
